Values from PubChem BioAssay AID1508597 (Cure First, 2020)
This is a random part of the about 2,100 reagents, in one setting of the screen. 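Calls flag viability under 80% in either arm, not effects specific to rucaparib; the reference for percent is not stated.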 Some reagents were tested in more than one well and are listed for each. Not given: the 100% reference.

Purpose: 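Genes whose silencing sensitises or protects ovarian cancer cells against rucaparib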 (primary screen)
Cell system: human ovarian carcinoma lines grown from tumours: OCI-P5x (papillary serous) and OCI-C5x (clear cell)
Reagents: siRNA pool against human genes, 1.25 pmol siRNA per well
Time to read-out: 72 h or 96 h, depending on the cell culture
Conditions: rucaparib 20 µM (about IC30) or vehicle, present until read-out
Rucaparib or vehicle: Vehicle
Cell line: OCI-C5x (clear cell)
Measured: 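Luminescent ATP-based viability assay read 72 or 96 h after transfection, depending on culture, given as normalised percent viability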
Direction: viability, normalised: higher = more viable cells remaining
Rule for the call: 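a well counts as a hit if its normalised viability is under 80 percent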
Calls: active = viability under 80%; inactive = viability 80% or more

Gene	technical replicate	viability, normalised (%)	Outcome
FOXC1 (GeneID 2296)	1	45.3	active
FOXC1 (GeneID 2296)	2	42.3	active
FOXC1 (GeneID 2296)	3	48.9	active
BMX (GeneID 660)	1	44.9	active
BMX (GeneID 660)	2	49.2	active
BMX (GeneID 660)	3	52.8	active
PCGF2 (GeneID 7703)	1	36.7	active
PCGF2 (GeneID 7703)	2	30	active
PCGF2 (GeneID 7703)	3	35.8	active
ERCC2 (GeneID 2068)	1	50.4	active
ERCC2 (GeneID 2068)	1	63.8	active
ERCC2 (GeneID 2068)	2	49.2	active
ERCC2 (GeneID 2068)	2	69	active
ERCC2 (GeneID 2068)	3	67	active
ERCC2 (GeneID 2068)	3	59.5	active
SIRT7 (GeneID 51547)	1	31.4	active
SIRT7 (GeneID 51547)	2	38.5	active
SIRT7 (GeneID 51547)	3	39.2	active
HSD17B4 (GeneID 3295)	1	74.9	active
HSD17B4 (GeneID 3295)	2	60.2	active
HSD17B4 (GeneID 3295)	3	73	active
VAX2 (GeneID 25806)	1	40.6	active
VAX2 (GeneID 25806)	2	84.6	inactive
VAX2 (GeneID 25806)	3	90.6	inactive
TLK2 (GeneID 11011)	1	50.4	active
TLK2 (GeneID 11011)	1	57.5	active
TLK2 (GeneID 11011)	2	40.9	active
TLK2 (GeneID 11011)	2	47.4	active
TLK2 (GeneID 11011)	3	31.4	active
TLK2 (GeneID 11011)	3	51.2	active
CXXC5 (GeneID 51523)	1	43.4	active
CXXC5 (GeneID 51523)	2	62.6	active
CXXC5 (GeneID 51523)	3	44.7	active
SMYD5 (GeneID 10322)	1	56.9	active
SMYD5 (GeneID 10322)	2	38.2	active
SMYD5 (GeneID 10322)	3	60.9	active
TLR4 (GeneID 7099)	1	33.2	active
TLR4 (GeneID 7099)	2	29.7	active
TLR4 (GeneID 7099)	3	28.9	active

3 entries from above, set out differently:
Gene | technical replicate | viability, normalised (%) | Outcome
SMYD5 (GeneID 10322) | 3 | 60.9 | active
TLR4 (GeneID 7099) | 1 | 33.2 | active
TLR4 (GeneID 7099) | 2 | 29.7 | active
